Reference: patent US10137081B2, “Device and method for sustained release of antipsychotic medications” (DELPOR, INC., priority 2012, dated 2018)
Some entries share one result that the patent states for a list of compounds.

risperidone butyrate [reference compound]
time at which in vitro release falls below the minimum therapeutic concentration (FIG. 2, lower limit of therapeutic window 0.8 mg/day): less than 40 days

Cc1nc2n(c(=O)c1CCN1CCC(c3noc4cc(F)ccc34)CC1)CCCC2 [risperidone free base, risperidone, reference compound]
in vitro release of risperidone compared with the level needed to sustain therapy (device in Earle's balanced salt solution, pH 7.4, FIG. 1, therapeutic window 0.8-2.5 mg/day): < 0.8 mg/day

risperidone hexanoate
period for which in vitro release is maintained at therapeutic levels / within the therapeutic concentration window (window 0.8 mg/day to 2.5 mg/day, FIGS. 2, 3, 4): ≥ 60 days
